Experimental data from article PMC7862700.
The other results are listed elsewhere or left out. The source does not settle which construct or isoform was used.

molecular target: T1, ETS1 (UniProt P14921); assay: DAPPL (digital affinity profiling via proximity ligation, sequencing); conditions: 10 mM Tris-HCl pH 7.5, 50 mM NaCl, 1 mM DTT, 4% glycerol, room temperature, 30 min; GST-TFs on glutathione beads, 16-mer random dsDNA library, 0.1% …; high values mean tight binding; double strand, one strand shown; scale: fold enrichment (6-mer frequency, TF over GST control)
T1 sequence: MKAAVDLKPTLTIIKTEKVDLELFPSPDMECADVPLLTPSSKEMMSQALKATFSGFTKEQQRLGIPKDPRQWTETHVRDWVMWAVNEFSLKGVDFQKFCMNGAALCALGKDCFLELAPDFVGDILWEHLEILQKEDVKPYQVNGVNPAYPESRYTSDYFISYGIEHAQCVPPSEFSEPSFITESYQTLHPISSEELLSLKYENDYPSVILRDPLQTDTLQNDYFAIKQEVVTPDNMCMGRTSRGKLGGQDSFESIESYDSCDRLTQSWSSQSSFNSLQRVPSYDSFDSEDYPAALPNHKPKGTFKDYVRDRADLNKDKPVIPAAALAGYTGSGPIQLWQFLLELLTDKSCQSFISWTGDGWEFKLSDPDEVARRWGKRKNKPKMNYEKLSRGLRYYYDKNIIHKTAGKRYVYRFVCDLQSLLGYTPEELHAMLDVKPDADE

| Sequence | binding signal |
| --- | --- |
| CGTCTT | 1.45 |
| AGTTTC | 1.26 |
| TAGTGT | 1.06 |
| TCCCGT | 1.3 |
| CTATCG | 1.09 |
| CGCGCT | 1.25 |
| CAAACG | 1 |
| TCTAAC | 1.21 |
| CCGCTG | 1.07 |
| TAGATG | 1.29 |
| AGGTAA | 0.953 |
| GCGACC | 1.14 |
| ACCCTT | 1.24 |
| CTACTG | 1.36 |
| CGGCCT | 1.1 |
| CAACTC | 1.35 |
| TCCGCA | 2.25 |
| GCTTTT | 1.09 |
| GCTCTT | 1.42 |
| TCACAA | 1.14 |

| Sequence | binding signal |
| --- | --- |
| ACTACA | 1.14 |
| AGCCAC | 1.04 |
| TTAGCA | 1.19 |
| CCGGCC | 1.15 |
| GGTACT | 1.29 |
| TTTGTC | 1.18 |
| AGCATT | 0.943 |
| AACACT | 1.29 |
| CTGCGT | 1.14 |
| GTAATA | 1.21 |
| ACTTAG | 1.13 |
| CAAACT | 1.19 |
| ACTCGA | 1.31 |
| CTGGCT | 1.26 |
| TACCTT | 1.51 |
| AGATTT | 1.16 |
| AATATG | 1.15 |
| ACCACG | 1.05 |
| GGTCAC | 1.04 |
| CTTCAC | 1.43 |

As entered above:
binding signal with CGCGCT reads 1.25
binding signal with GTAATA reads 1.21
binding signal with ACTCGA reads 1.31
